PubChem BioAssay AID602196, INSERM, 2012
Test: 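Knock-downs that protect lung cancer cells from cisplatin or sensitise them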. Cells: human A549 lung cancer cells. Reagents: siRNA pair against human genes. Timing: 48 h transfection before cisplatin; time from cisplatin to read-out not stated. Treatment: cisplatin at a dose killing half of control-siRNA cells; exact dose and duration not given. Measurement: 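Cisplatin cell death as a shift from the 50% death seen with control siRNA; siRNAs toxic or growth-blocking alone scored 0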. Reading the numbers: two-siRNA summed score (-2 to +2): higher = both siRNAs protect from cisplatin killing; -2 means both sensitise; mean protection from cisplatin (shift in death) and protection from cisplatin (shift in death), siRNA C: higher = protection from cisplatin killing. Rule for the call: 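Each siRNA scores 0 if harmful alone by LDH or WST-1, otherwise +1 if it reduces and -1 if it increases cisplatin killing; a gene is active when both siRNAs agree (sum +2 or -2)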. Calls: active = both siRNAs shift cisplatin killing the same way; inactive = no consistent shift, or siRNA harmful alone.
The whole screen tested about 23,000 reagents; shown is a part drawn at random. Of all reagents, 455 (2%) got an active call. 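Active includes both protection and sensitisation; some change values fall well beyond the stated -50 to +50 range.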 The numbers tell different reagents against one gene apart. Not all columns of the deposit are shown. Reagent sequences are not shown. The record does not give: the amount of reagent.

Gene	reagent no.	two-siRNA summed score (-2 to +2)	mean protection from cisplatin (shift in death) (%)	protection from cisplatin (shift in death), siRNA C (%)	Call
NTMT1 (N-terminal Xaa-Pro-Lys N-methyltransferase 1)	1	-1	-2.9	-15.4	inactive
LOC389353	1	0	9.8	8.9	inactive
LOC440932	1	0	4.7	9.5	inactive
TNNI3 (troponin I3, cardiac type)	1	0	-1.7	-12.5	inactive
SLC15A4	1	0	11.1	5.4	inactive
TRMT6 (tRNA methyltransferase 6 non-catalytic subunit)	1	0	-2.3	-10.4	inactive
WFDC12 (WAP four-disulfide core domain 12)	1	0	-6.8	-9.7	inactive
TOM1L2 (target of myb1 like 2 membrane trafficking protein)	1	0	6	11.3	inactive
PGAM5	1	0	4.6	-0.4	inactive
IL17RC (interleukin 17 receptor C)	1	0	3.7	9	inactive
LOC440669	1	2	24	24.4	active
SPMIP11 (sperm microtubule inner protein 11)	1	0	4.4	1.6	inactive
MTCP1 (mature T cell proliferation 1)	1	0	10.9	14.6	inactive
MTCP1 (mature T cell proliferation 1)	2	0	14.5	13.6	inactive
GSTA2 (glutathione S-transferase alpha 2)	1	1	6.4	0	inactive
TEDC2 (tubulin epsilon and delta complex 2)	1	0	8	11.8	inactive
PCDHAC2 (protocadherin alpha subfamily C, 2)	1	0	7.6	-1.6	inactive
AVPR1A (arginine vasopressin receptor 1A)	1	0	6.6	23.5	inactive
LOC342426	1	0	16.5	12	inactive
SLC44A3	1	0	-0.8	-1.2	inactive
LYVE1 (lymphatic vessel endothelial hyaluronan receptor 1)	1	-1	-3.6	12.7	inactive
IDH2 (isocitrate dehydrogenase (NADP(+)) 2)	1	1	7.4	-4.6	inactive
FRRS1L (ferric chelate reductase 1 like)	1	0	6	7.8	inactive
